From US20110081354A1 (Bristol-Myers Squibb, published 2011) come the findings set out here.

The chains behind the UniProt entries cited, without tags or fusion partners. Where a name states a change or a piece, a line headed by the entry shows the natural chain unless it says otherwise.
UniProt P16410: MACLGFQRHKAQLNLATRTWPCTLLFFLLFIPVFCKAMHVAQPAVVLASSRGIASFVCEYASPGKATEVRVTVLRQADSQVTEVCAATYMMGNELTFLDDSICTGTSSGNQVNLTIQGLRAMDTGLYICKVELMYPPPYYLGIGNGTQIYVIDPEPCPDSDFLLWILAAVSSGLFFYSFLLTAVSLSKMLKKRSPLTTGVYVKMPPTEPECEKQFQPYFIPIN
UniProt P24161: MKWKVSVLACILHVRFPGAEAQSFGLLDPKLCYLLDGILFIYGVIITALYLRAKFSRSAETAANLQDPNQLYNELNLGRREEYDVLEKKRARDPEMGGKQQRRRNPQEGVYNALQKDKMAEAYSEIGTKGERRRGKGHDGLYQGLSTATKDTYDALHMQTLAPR

Experiment [1] concerns the target T1, chimeric CTLA-4 protein comprising the extracellular and transmembrane domains of human CTLA-4 linked to the intracellular domain of CD3zeta, expressed on a transformed cell line (human; murine) (UniProt P16410+P24161). The experiment can be described thus: flow cytometry on cells expressing the human CTLA-4 extracellular and transmembrane domains fused to CD3zeta, PE-labeled goat anti-human IgG detection. On the technique in general: Flow cytometry measures light scatter and fluorescence of single cells or particles in a stream.

Experiment [2] has as its target T1, chimeric CTLA-4 protein comprising the extracellular and transmembrane domains of human CTLA-4 linked to the intracellular domain of CD3zeta, expressed on a transformed cell line (human; murine). Description: flow cytometry on cells expressing human CTLA-4.

These are yes or no findings as the source states them, for the method shown. Some entries that bind do so weakly or less than the wild type.

B1: 6C10 human monoclonal antibody (antibody, V domains shown)
VH: QVQLVESGGGVVQPGRSLRLSCTASGFTFSSHGMHWVRQAPGKGLEWVAVVWFDGSNKYYVDSVKGRFTISRDNSKNTLYLQMNSLRAEDTAVYYCARGSGYSSGFDYWGQGTLVTVSS
VL: DIQMTQSPSSLSASVGDRVTITCRASQGISSWLAWYQQKPEKAPKSLIYAASSLQSGVPSRFSGSGSGTDFTLTISSLQPEDFATYYCQQYNSYPLTFGGGTKVEIK
notes: Purified human IgG kappa antibody from a hybridoma (HuMab mouse); also called mAb 6C10
With B1, the binding entry in experiment [1] and in experiment [2] was “binds” throughout.
